Our source for the binding values is publication PMC5485180.

For this assay, the target named is T1, Forkhead box subclass M1 (human) (UniProt Q08050).
T1 sequence: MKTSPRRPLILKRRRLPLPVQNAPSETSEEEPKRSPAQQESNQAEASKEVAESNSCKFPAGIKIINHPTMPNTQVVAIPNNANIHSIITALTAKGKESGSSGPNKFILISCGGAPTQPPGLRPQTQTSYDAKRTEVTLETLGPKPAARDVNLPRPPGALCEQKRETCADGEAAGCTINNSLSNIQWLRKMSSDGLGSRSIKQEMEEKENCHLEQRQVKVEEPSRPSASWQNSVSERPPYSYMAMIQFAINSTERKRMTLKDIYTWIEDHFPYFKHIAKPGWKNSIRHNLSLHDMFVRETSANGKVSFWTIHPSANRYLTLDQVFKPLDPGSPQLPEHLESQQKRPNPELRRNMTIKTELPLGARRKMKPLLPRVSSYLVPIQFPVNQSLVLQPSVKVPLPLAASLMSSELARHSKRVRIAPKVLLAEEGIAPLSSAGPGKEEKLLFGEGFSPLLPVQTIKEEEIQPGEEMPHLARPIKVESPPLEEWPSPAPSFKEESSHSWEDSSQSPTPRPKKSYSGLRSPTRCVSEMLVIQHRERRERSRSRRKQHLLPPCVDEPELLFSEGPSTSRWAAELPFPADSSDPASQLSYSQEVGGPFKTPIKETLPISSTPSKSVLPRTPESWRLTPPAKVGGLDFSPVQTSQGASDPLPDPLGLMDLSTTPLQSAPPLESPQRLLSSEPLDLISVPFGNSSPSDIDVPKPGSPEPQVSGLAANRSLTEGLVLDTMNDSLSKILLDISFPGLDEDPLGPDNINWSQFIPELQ
Kind of assay: co-IP; co-IP assay to detect the interaction of AURKA and FOXM1; cell line, precipitating antibody and buffer not told in the shown text.

No constants are given. Whether binding was seen depends on the method and setting. In cells and extracts the contact can be indirect. Some binding calls cover weakened binding; strength is not graded here.

B1: Aurora kinase A (enzyme, UniProt O14965 1-403)
chain: MDRSKENCISGPVKATAPVGGPKRVLVTQQFPCQNPLPVNSGQAQRVLCPSNSSQRIPLQAQKLVSSHKPVQNQKQKQLQATSVPHPVSRPLNNTQKSKQPLPSAPENNPEEELASKQKNEESKKRQWALEDFEIGRPLGKGKFGNVYLAREKQSKFILALKVLFKAQLEKAGVEHQLRREVEIQSHLRHPNILRLYGYFHDATRVYLILEYAPLGTVYRELQKLSKFDEQRTATYITELANALSYCHSKRVIHRDIKPENLLLGSAGELKIADFGWSVHAPSSRRTTLCGTLDYLPPEMIEGRMHDEKVDLWSLGVLCYEFLVGKPPFEANTYQETYKRISRVEFTFPDFVTEGARDLISRLLKHNPSQRPMLREVLEHPWITANSSKPSNCQNKESASKQS
Take B1: the binding result is reported as “binds”.
